Data reported in paper doi:10.1101/2020.10.04.325480.
No constants are given. Whether binding was seen depends on the method and setting. In cells and extracts the contact can be indirect. Some entries that bind do so weakly or less than the wild type.

Sequences of proteins named here, by UniProt entry; tags and fusion partners are left off. Residues count along the entry.
UniProt Q96SN7: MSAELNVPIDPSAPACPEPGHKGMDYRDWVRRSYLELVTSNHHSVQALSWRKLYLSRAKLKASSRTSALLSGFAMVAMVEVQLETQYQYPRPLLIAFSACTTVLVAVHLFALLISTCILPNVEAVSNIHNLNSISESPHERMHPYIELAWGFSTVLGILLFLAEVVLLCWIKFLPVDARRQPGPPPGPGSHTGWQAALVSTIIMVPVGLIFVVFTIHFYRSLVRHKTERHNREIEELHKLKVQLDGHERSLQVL
UniProt Q96D31: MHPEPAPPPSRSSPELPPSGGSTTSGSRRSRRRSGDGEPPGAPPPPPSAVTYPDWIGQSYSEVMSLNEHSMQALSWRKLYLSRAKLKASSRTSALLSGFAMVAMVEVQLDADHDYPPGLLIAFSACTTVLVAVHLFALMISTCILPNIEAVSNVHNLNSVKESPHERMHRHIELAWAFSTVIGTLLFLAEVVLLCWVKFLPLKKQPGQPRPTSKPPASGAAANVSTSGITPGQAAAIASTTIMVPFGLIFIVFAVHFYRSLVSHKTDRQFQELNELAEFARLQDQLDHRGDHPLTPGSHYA
UniProt Q13586, residues 23-685: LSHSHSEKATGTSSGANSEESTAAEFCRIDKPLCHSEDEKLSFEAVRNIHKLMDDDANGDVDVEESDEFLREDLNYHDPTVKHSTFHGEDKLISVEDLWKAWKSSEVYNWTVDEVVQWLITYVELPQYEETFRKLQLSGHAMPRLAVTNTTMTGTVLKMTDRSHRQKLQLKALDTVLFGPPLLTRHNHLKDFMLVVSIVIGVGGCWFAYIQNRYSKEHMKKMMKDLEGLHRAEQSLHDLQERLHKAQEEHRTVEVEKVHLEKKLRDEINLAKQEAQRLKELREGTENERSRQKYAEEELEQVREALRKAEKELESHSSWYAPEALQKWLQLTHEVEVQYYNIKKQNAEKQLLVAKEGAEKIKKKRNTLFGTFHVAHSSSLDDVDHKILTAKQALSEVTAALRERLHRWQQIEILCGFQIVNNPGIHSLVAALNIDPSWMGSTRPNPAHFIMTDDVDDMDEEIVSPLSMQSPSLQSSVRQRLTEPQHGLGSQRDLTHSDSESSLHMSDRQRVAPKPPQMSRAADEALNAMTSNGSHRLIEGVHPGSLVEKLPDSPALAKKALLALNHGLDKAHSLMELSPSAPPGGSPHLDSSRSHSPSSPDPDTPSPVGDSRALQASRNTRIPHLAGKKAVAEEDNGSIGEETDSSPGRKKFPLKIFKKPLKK
UniProt Q9P246, residues 15-746: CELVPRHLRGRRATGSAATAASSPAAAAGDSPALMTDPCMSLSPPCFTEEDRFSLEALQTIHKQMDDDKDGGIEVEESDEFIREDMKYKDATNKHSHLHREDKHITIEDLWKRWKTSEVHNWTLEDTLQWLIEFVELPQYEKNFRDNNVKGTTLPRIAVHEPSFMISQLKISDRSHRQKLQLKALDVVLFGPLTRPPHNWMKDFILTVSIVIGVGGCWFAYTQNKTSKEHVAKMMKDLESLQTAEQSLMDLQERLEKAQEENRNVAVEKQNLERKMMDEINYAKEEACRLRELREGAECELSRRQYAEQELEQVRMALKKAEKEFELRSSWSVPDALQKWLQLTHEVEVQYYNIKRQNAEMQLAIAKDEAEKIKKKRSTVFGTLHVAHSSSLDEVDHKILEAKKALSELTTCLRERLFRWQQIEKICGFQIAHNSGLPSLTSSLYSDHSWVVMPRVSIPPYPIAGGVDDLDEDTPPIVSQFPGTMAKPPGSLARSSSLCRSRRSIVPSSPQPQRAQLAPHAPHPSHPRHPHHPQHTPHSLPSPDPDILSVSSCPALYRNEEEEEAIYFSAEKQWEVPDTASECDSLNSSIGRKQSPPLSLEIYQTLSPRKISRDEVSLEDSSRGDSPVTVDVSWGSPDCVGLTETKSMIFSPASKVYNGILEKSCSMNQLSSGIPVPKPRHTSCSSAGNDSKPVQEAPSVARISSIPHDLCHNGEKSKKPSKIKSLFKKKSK

How the values were obtained:
[1] = molecular target: CFP-Orai2 (UniProt Q96SN7); test: FRET or BRET
[2] = molecular target: CFP-Orai1 (UniProt Q96D31); test: FRET or BRET

Row | Substance | binding [1] | binding [2]
1 | STIM1-YFP (from UniProt Q13586 23-685) | binds | 
2 | STIM2-YFP (from UniProt Q9P246 15-746) | binds | binds
